Sequences of proteins named here, by UniProt entry; tags and fusion partners are left off. A change or cut given only in a name is not applied to a line headed by its entry.
UniProt P51450: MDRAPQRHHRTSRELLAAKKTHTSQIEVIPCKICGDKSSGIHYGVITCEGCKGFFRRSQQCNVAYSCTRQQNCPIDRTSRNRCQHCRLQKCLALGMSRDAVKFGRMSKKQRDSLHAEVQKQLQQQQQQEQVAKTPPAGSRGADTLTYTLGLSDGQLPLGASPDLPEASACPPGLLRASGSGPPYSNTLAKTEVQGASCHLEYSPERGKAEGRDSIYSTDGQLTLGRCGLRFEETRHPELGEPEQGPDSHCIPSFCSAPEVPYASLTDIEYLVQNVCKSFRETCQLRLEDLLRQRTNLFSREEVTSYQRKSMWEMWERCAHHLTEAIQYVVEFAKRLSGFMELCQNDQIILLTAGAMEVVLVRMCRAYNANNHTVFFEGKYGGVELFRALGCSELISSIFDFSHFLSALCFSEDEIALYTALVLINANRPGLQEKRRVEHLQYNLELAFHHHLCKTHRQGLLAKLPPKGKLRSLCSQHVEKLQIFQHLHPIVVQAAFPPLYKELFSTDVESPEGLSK

The campaign covered roughly 310,000 compounds. About 17,000 (5.5%) were called active. The inconclusive results got no clear call from the source; some entries with a clear call stand among them for comparison. Calls follow the shape of the dose curve; as a rule, active = well fitted inhibition curve with a large enough effect; inconclusive = small, poorly fitted or top-dose-only effect, or effect the other way; inactive = no such curve, though single readings can be large or run the other way. Potencies beside an inconclusive call are fits to weak or partial responses and may not hold up.
These compounds were tested against Nuclear receptor ROR-gamma (Mus musculus) (UniProt P51450) (assay: qHTS for inhibitors of ROR gamma transcriptional activity). Conditions: Drosophila S2 Gal4-RORgamma UAS-luciferase reporter, 20 h; series mostly up to 53.6 µM.
How it was run: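 Compounds are pin-transferred onto Drosophila Schneider cells expressing a copper-inducible Gal4–ROR gamma transactivation domain fusion. After 1 hr, copper sulfate is added to 700 uM final; luciferase is read 20 hr later.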
O=C(CCS(=O)(=O)c1ccccc1)Nc1cccc(-c2nc3ccccc3s2)c1 was tested, and the Potency was inconclusive: 20 µM [activator, partial curve, poor fit]. CCN(CC)c1ccc(CNc2ccc(Br)cn2)cc1 was tested, and the Potency was “inactive”. With O=C(/C=C/c1ccco1)Oc1cccc2cccnc12 the Potency was active: 1.41 µM. For CCN1CCc2c(sc(NC(=O)c3cc4ccccc4cc3OC)c2C(N)=O)C1, the Potency was active: 4.47 µM. Cc1cc(N)c2ccccc2n1 was tested, and the Potency was “inactive”. For Fc1ccc(COc2ccc(C(=S)N3CCCC3)cc2)cc1, the Potency was inconclusive: 20 µM [inhibitor, single point]. COc1cc(CN2CCCC(C(=O)c3ccccc3SC)C2)cc(OC)c1 (centres undefined) was tested, and the Potency was “inactive”. Cc1ccc(OCCCn2c(=O)sc3ccccc32)cc1 was tested, and the Potency was inconclusive: 12.6 µM [inhibitor, partial curve, poor fit]. For O=C(NCCc1ccccc1)c1cccc([N+](=O)[O-])c1, the Potency was inconclusive: 6.31 µM [activator, partial curve]. For CC1CC(C)CN(c2oc(Cc3ccccc3)nc2C#N)C1 (centres undefined), the Potency was inconclusive: 10 µM [activator, partial curve]. CCc1ccccc1N(CC(=O)Nc1cccnc1)S(=O)(=O)c1ccccc1 was tested, and the Potency was inconclusive: 0.355 µM [activator, full curve, poor fit]. With CCOC(=O)c1cnc(-n2nc(C)cc2C)nc1NCCO the Potency was inconclusive: 10 µM [inhibitor, partial curve]. O=C(c1ccc(OC2CCN(C(=O)c3cccnc3)CC2)cc1)N1CCCCCC1 was tested, and the Potency was inconclusive: 22.4 µM [activator, single point]. O=C(/C=C/c1c(Cl)nc2ccccn12)N1CCCCC1 was tested, and the Potency was inconclusive: 1.41 µM [activator, full curve, poor fit]. For O=C(N/N=C/c1cccc(Br)c1)c1ccc(Cn2cc(Br)cn2)o1, the Potency was inconclusive: 12.6 µM [activator, partial curve]. With Cc1cc(C(=O)CSc2nc3ccccc3c(=O)[nH]2)c(C)n1CC1CCCO1 (centres undefined) the Potency was inconclusive: 0.282 µM [activator, partial curve]. CCCCCCNC(=O)CNC(=S)N(Cc1cccs1)C1CCCCC1 was tested, and the Potency was inconclusive: 35.5 µM [inhibitor, single point]. For Cc1c(N2C(=O)c3cccc4cccc(c34)C2=O)cnn1C, the Potency was “inactive”. In the case of CC(C)(C)c1csc(NC(=O)c2ccc(Br)o2)n1, the Potency is reported as inconclusive: 28.2 µM [activator, partial curve, poor fit]. In the case of COc1ccc(OC)c2c1cc(C(=O)N[C@H](C(=O)N1CCC(C(=O)O)CC1)C(C)C)n2C, the Potency is reported as inconclusive: 35.5 µM [activator, single point]. In the case of COc1ccc(N(C(=O)Cc2cccs2)C(C(=O)NC2CCCCC2)c2cccn2C)cc1OC (centres undefined), the Potency is reported as “inactive”. COC(=O)C1C(=O)C=C(Nc2ccc(F)cc2)CC1c1ccc(OC)cc1 (centres undefined) was tested, and the Potency was inconclusive: 11.2 µM [activator, partial curve]. Cc1csc(NC(=O)c2ccc(-c3ccc(Cl)cc3Cl)o2)n1 was tested, and the Potency was inconclusive: 15.8 µM [inhibitor, single point]. Cc1ccc(OCCSc2ncnc3sc(C)c(C)c23)cc1C was tested, and the Potency was active: 11.2 µM. CC(C)(C)NC(=S)NNC(=O)c1ccccc1Cl was tested, and the Potency was active: 0.447 µM. With CCOC(=O)C1(Cc2cccc(F)c2)CCN(Cc2cnn(CC)c2)CC1 the Potency was “inactive”. For CC1(C)C/C(=N\NC(=S)Nc2ccccc2F)c2cc(O)ccc2O1, the Potency was active: 3.16 µM. With C/C=C/COC(=O)c1[nH]c2c(c1C)C(=O)CC(c1ccc(N(C)C)cc1)C2 (centres undefined) the Potency was inconclusive: 10 µM [activator, partial curve]. For C[C@@H]1C[C@](C)(C(=O)c2ccc3c(c2)OCO3)C=C1c1ccc2c(c1)OCO2, the Potency was “inactive”. In the case of CC(O)c1nc2ccccc2n1C(C)c1ccccc1 (centres undefined), the Potency is reported as inconclusive: 5.62 µM [inhibitor, single point]. With COc1ccc(-n2nc(C(=O)N3CCCCC3)c3ccccc3c2=O)cc1 the Potency was “inactive”. COc1ccc(N(C(=O)c2ccc(Br)o2)C2C=CS(=O)(=O)C2)c(OC)c1 (centres undefined) was tested, and the Potency was “inactive”. In the case of CCC(C)NC(=O)CCC(=O)Nc1ccc2nc(N3CC(C)CC(C)C3)cc(C)c2c1 (centres undefined), the Potency is reported as “inactive”. For Cc1c(Br)c([N+](=O)[O-])nn1CC(=O)N1CCN(C23CC4CC(CC(C4)C2)C3)CC1, the Potency was “inactive”. O=C(N/N=C/C=C/c1ccccc1)c1ccncc1 was tested, and the Potency was active: 2.82 µM. With CC1CCc2cc(F)cc3c(O)c(C(=O)NCC4CCCO4)c(=O)n1c23 (centres undefined) the Potency was inconclusive: 35.5 µM [inhibitor, single point]. With CCOC(=O)C(C)Sc1nc(N)c(NC(=O)c2ccc(OC)c(OC)c2)c(=O)[nH]1 (centres undefined) the Potency was inconclusive: 0.398 µM [inhibitor, partial curve, poor fit]. CCCOCC(O)CC(CC)C(=O)NNC(=S)Nc1ccccc1 (centres undefined) was tested, and the Potency was inconclusive: 11.2 µM [inhibitor, single point]. In the case of COc1ccc(Cn2c(=O)[nH]c3cc(C(=O)N4CCN(c5ccccc5)CC4)ccc3c2=O)cc1, the Potency is reported as “inactive”. With CCOC(=O)c1[nH]cnc1C(=O)Nc1ccccc1 the Potency was inconclusive: 35.5 µM [inhibitor, single point]. With O/N=C1\CCCCc2ccccc21 the Potency was inconclusive: 35.5 µM [inhibitor, single point]. In the case of COc1ccc(C)cc1NC(=O)c1cnc2n(c1=O)CCS2, the Potency is reported as inconclusive: 6.31 µM [activator, partial curve]. In the case of CCc1ccc(/C=N/NC(=O)c2cc(-c3ccncc3)nc3ccccc23)s1, the Potency is reported as active: 2 µM. For O=C(CCl)N(Cc1cccc([N+](=O)[O-])c1)c1cccc(Cl)c1, the Potency was inconclusive: 35.5 µM [inhibitor, single point]. In the case of COc1ccc2c(CC(=O)Nc3cccc(S(=O)(=O)N4CCOCC4)c3)coc2c1, the Potency is reported as inconclusive: 35.5 µM [activator, single point]. In the case of COc1cccc(NS(=O)(=O)c2ccc3c(c2)CCN3C(C)=O)c1, the Potency is reported as inconclusive: 7.08 µM [activator, partial curve]. Cc1cccc(CNC(=O)C2CCC(=O)N(C3CC3)C2)c1 (centres undefined) was tested, and the Potency was “inactive”. N#Cc1c(N)nc(SCc2ccccc2)c(C#N)c1-c1ccco1 was tested, and the Potency was inconclusive: 20 µM [inhibitor, single point]. In the case of COc1cc(C2C(C#N)=C(N)Oc3cc(O)ccc32)cc2c1OCO2 (centres undefined), the Potency is reported as inconclusive: 31.6 µM [inhibitor, single point]. CC(=O)c1cccc(NC(=O)Nc2cnn(Cc3ccc(Cl)cc3Cl)c2)c1 was tested, and the Potency was “inactive”. With CC1CN(S(=O)(=O)c2ccc(C(=O)Nc3sc4c(c3C(N)=O)CCN(C)C4)cc2)CC(C)O1 (centres undefined) the Potency was inconclusive: 15.8 µM [activator, partial curve, poor fit]. In the case of CCCCOc1ccc(C(=O)Nc2ccncc2)cc1, the Potency is reported as inconclusive: 25.1 µM [inhibitor, single point]. With O=C(N/N=C/c1ccccc1O)C(=O)N1CCCCCC1 the Potency was active: 12.6 µM. For NNc1nc(-c2ccccc2)c2cc(Br)ccc2n1, the Potency was active: 2.51 µM. With CC(C)(C)c1ccc(OCCCC(=O)N2CCOCC2)cc1 the Potency was inconclusive: 31.6 µM [inhibitor, single point]. In the case of Cc1cc(NC(=O)c2noc3c2CCCC3)n(-c2ccccc2)n1, the Potency is reported as “inactive”. Cc1nc(N)sc1-c1csc(Nc2ccccn2)n1 was tested, and the Potency was inconclusive: 0.199 µM [activator, full curve, poor fit]. For COC(c1ccc(Cl)cc1)(c1ccc(Cl)cc1)C(Oc1nccc(C)n1)C(=O)O (centres undefined), the Potency was inconclusive: 35.5 µM [activator, single point]. In the case of O=C1CN(C(=O)C2CCCC2)CCN1, the Potency is reported as “inactive”. With CCN(CC(=O)NCc1ccc(Cl)cc1)C(=O)Cc1ccc(OC)cc1 the Potency was “inactive”. In the case of CCc1ccc(/C(C)=N/NC(=O)c2ccccn2)cc1, the Potency is reported as inconclusive: 15.8 µM [inhibitor, single point]. O=C(Nc1ncc(S(=O)(=O)c2ccc([N+](=O)[O-])cc2)s1)c1cccc2ccccc12 was tested, and the Potency was inconclusive: 11.2 µM [activator, single point]. For Cc1nc(SCc2ccc(F)cc2)c([N+](=O)[O-])[nH]1, the Potency was inconclusive: 35.5 µM [inhibitor, single point]. Cc1ccc(S[C@@H](CCN2CC[C@H](C)CCC2=O)c2ccccc2)cc1 was tested, and the Potency was inconclusive: 35.5 µM [activator, single point]. Cc1cc(C(=O)CN2C(=O)NC3(CCCCC3)C2=O)c(C)n1-c1ccc2c(c1)OCO2 was tested, and the Potency was inconclusive: 10 µM [activator, partial curve]. S=c1[nH]nc(COc2cccc(Cl)c2)n1Cc1ccccc1 was tested, and the Potency was active: 1.41 µM. In the case of COc1ccc(C(C)=O)cc1CSc1nc2ccccc2c(=O)n1-c1ccccc1, the Potency is reported as “inactive”. For CC(C)c1cc(C(=O)Nc2cccc(C(F)(F)F)c2)no1, the Potency was inconclusive: 6.31 µM [inhibitor, single point]. With C#Cc1ccc([C@H]2C=C(C(=O)N3CCOCC3)O[C@@H](OCc3ccc(CO)cc3)C2)cc1 the Potency was “inactive”. For CC(C)(C)c1nc(SCC(=O)c2ccccc2)c2ccccc2n1, the Potency was active: 20 µM. In the case of O=S(=O)(c1ccccc1)N1CCC2(CCN(Cc3ccccc3)CC2)CC1, the Potency is reported as “inactive”. With CCOc1ccc(CCNC(=O)c2ccc(CS(=O)Cc3ccc(Cl)cc3)o2)cc1OCC (centres undefined) the Potency was “inactive”. In the case of CCC(CC)c1nnc(NC(=O)c2cccnc2SC)s1, the Potency is reported as inconclusive: 17.8 µM [inhibitor, single point]. With CCOc1ccccc1-n1c(SCC(=O)Nc2ccc(CC)cc2)nc2n[nH]c(C)c2c1=N the Potency was inconclusive: 35.5 µM [inhibitor, single point].

Source: PubChem BioAssay AID2551 (National Center for Advancing Translational Sciences (NCATS), 2010)
Also: nearly all actives have a fitted effect of over 60% in size.
Potency is read from the fitted curve at half-maximal effect.
